Here are results for three molecules from paper doi:10.1101/2021.04.01.437949 (bioRxiv, 2021).

By UniProt entry, the sequences of proteins in these tests, tags left out. Where a name states a change or a piece, a line headed by the entry shows the natural chain unless it says otherwise.
UniProt P22147: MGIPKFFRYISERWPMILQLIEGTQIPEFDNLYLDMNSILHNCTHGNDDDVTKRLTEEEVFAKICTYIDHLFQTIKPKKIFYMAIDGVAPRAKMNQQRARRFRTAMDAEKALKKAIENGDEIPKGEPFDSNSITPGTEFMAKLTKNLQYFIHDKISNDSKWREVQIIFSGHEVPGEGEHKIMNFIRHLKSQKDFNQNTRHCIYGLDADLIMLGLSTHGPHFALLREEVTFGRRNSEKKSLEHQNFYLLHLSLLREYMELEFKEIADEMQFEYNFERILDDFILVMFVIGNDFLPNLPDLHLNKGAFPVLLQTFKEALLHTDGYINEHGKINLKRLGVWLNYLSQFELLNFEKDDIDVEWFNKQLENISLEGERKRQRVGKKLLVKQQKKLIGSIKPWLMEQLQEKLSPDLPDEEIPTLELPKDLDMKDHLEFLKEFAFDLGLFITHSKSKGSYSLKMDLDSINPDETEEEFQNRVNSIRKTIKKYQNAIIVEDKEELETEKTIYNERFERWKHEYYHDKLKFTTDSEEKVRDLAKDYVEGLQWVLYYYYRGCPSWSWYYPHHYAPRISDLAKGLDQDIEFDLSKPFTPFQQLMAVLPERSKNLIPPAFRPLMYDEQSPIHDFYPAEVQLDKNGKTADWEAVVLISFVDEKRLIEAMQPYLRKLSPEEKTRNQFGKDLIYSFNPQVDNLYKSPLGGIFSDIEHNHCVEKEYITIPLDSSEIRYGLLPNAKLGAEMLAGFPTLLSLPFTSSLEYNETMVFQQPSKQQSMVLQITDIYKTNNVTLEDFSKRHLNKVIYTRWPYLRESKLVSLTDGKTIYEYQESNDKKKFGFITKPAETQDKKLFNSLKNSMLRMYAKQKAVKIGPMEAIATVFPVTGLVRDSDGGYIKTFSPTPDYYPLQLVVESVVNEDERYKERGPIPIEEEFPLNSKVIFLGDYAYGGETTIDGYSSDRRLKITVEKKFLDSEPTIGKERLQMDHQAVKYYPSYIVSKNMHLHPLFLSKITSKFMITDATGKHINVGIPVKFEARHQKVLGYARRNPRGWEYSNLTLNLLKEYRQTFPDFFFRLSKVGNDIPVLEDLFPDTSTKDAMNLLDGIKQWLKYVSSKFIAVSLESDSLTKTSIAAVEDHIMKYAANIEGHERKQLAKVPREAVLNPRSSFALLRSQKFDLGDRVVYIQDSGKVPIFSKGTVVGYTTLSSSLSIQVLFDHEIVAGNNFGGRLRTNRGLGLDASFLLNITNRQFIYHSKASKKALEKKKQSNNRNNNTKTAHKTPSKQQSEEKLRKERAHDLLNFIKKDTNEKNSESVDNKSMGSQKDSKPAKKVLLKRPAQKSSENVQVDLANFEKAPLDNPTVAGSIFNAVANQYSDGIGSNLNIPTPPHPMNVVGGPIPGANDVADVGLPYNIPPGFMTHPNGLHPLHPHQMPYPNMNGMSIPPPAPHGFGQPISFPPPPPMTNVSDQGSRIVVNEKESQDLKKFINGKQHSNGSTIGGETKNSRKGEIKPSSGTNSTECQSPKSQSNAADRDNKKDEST

The chains are these.
B1: recombinant Kap120-6xHis (natural protein, S. cerevisiae, UniProt Q02932 1-1032, looked up)
chain: MASSLNELNLVQVLEQASNPQHIRSDVQKLAEQQLRQWETQAGFHYLLQSIYLNLSNSLQIRWLAVIQFKNGVDKYWRSTRINAIPKDEKASIRGRLFEMIDEQNNQLCIQNAQASARIARLDFPVEWPTLFEDLENLLNDEIIRKDSVKIYNILMHINQIVKVLGTARIGRCRPAMQSKVPLILPLIVRIYLQSFEEWTTSSNLNYEDLSSLQVSYLALKVLRRIICEGYDRPQTDQSVCDFIKLSVSHFEMLISNHENFKKFDIYEKFIKCLGKLYFNLVTGSPANFILLPCSTQILITYTRLIFDKAPKVYRENSDVTGDFWEQTAIRGLLILKRVINFIHKKGAITLKARSDKLTIDASINKINTEFLNENLITRLVDTLMEWYLRLRPTELENWFMDPEEWINEQMATSYEYQIRPCAENVFQDLMNTFSELLVPYLLKKIENDASKLSNSLDDFLRKDAIYASFQLSASAVSEMVDFDRLLIQVFLPEATNTNISGDELRIIRRRVALIINEWSTVKCSEESKSLCYKLFTNFLTDEDDKVVLLTTVQTVRTMVDDWNFNKDTFQPFLTENVHLLLRKILPSVSLTETRLYVLNTLSDIIIQTKPLISRDLLVEILQIIPNLWEIATNNASEAILANALLRLLRNLVSSLGSQSHLTWDIAIPVVALACDPSSMQYQLLSEDGYELWGMLLQNFSSHDQEFDDKFVELVPFLKYGIETHTEILPTLLEIIKSYALILNPVDFFSNNTFQDIFKQMSKYLLKLREDSFQLVLEIWEILILSNESDYENLLLQKFYETGVLSALFDAIFLEEAPSSYLCSQIIQIIARISYVNPDALMTFLATYHDNLPTSNENARMPESIRKIVSKDQTYDSVVNKLLTGWIVCFRDIFDPKFKKVHILGISSLLRTGLVPILTEFSSIASLWIEMLEEINETNRGDCEKYHLNDIVTEQSIAFHPLTAEQLRYHQLCKNNDPVHNISLKDFISQSMEYLESHLGVERYQEFLKTINPSLLENLQMFLSIQPQEARP

What all share (assay): pull-down
The assay “recombinant Kap120-6xHis” addresses B1.
In assay [1] the target is FLAG-tagged Xrn1^ΔNLS1 (S. cerevisiae) (UniProt P22147).
The target of assay [2] is FLAG-tagged Xrn1^ΔNLS2 (S. cerevisiae) (UniProt P22147).

No constants are given. Whether binding was seen depends on the method and setting. A result given as binding can be weak or reduced; the word gives no strength. Where a sequence is shown, tags or fusion partners need not be part of it.

For “FLAG-tagged Xrn1^ΔNLS1 (from UniProt P22147) (enzyme)”, in the assay with recombinant Kap120-6xHis, the binding result is on record as “binds”.
Same read-out and setting: the result for “FLAG-tagged Xrn1^ΔNLS2 (from UniProt P22147) (enzyme)” reads “binds”.
In the case of B1, the binding entry in assay [1] and in assay [2] was “binds” throughout.
